Test results from patent US12077555B2, “STAT degraders and uses thereof” (Kymera Therapeutics, Inc., priority 2019, dated 2024).
The structures given here were assigned with low confidence; some may be wrong.

Chains of the proteins cited; added tags and fusions are not shown.
UniProt P40763, whole entry: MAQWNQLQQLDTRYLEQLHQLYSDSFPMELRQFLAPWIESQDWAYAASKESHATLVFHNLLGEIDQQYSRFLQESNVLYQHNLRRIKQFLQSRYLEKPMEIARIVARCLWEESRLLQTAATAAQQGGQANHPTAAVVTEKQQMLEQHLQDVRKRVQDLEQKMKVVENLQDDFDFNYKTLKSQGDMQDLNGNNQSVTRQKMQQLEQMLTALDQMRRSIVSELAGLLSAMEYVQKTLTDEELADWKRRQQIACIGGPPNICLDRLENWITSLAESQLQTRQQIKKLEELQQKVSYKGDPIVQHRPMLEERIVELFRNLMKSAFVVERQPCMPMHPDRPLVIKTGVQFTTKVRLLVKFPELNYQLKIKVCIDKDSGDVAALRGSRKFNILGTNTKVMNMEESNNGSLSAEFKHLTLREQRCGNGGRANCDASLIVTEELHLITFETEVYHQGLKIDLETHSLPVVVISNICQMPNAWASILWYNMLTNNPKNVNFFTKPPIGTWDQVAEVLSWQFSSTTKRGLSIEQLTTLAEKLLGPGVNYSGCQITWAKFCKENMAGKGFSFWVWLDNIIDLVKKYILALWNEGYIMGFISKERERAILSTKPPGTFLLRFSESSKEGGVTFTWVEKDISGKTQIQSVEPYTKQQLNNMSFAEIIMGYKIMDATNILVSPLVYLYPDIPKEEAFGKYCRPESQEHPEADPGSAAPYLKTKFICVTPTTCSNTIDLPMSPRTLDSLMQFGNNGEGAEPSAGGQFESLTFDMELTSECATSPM

Tests used:
SU-DHL-1 cells [1] = experiment: Caspase 3/7-Glo activity assay; conditions: read-out: Apoptosis, Caspase3/7-Glo IC50 (μM) at 48 hr; SU-DHL-1, 48 hr
Method: Determination of apoptosis was determined using a Caspase 3/7-Glo assay.
• 1—Prepare the Caspase-Glo® 3/7 Reagent (Promega cat #G8090) • Equilibrate the Caspase-Glo® 3/7 Buffer and lyophilized Caspase-Glo® 3/7 Substrate to room temperature before use. • Transfer the contents of the Caspase-Glo® 3/7 Buffer bottle into the amber bottle containing Caspase-Glo® 3/7 Substrate. • Mix by swirling or inverting the contents until the substrate is thoroughly dissolved to form the Caspase-Glo® 3/7 Reagent • Aliquot and store at −20 • 2—If thawing the reagent, allow it to equilibrate to room temperature. Mix well. • 3—Remove white-walled 384-well plate containing treated cells from the incubator and allow plates to equilibrate to room temperature. • 4—Add Caspase-Glo® 3/7 Reagent to each well of the plate at 1:1 ratio with media. Because of the sensitivity of this assay, be careful not to touch pipet tips to the wells containing samples to avoid cross-contamination. Cover the plate with a plate sealer or lid. • 5—Gently mix contents of wells using a plate shaker at 300-500 rpm for 30 seconds. Incubate at room temperature for 30-60 minutes. Note: Temperature fluctuations will affect the luminescence reading. • 6—Measure the luminescence of each sample in a plate-reading luminometer as directed by the luminometer manufacturer.

STAT3 = STAT3 (Homo sapiens, UniProt P40763); experiment: STAT3 level after 24 hours treatment (FIG. 7A)
Method: FIG. 7 depicts the decrease in STAT3 observed at 24 hours treatment with I-103 (A), the time-dependent inhibition of proliferation with I-103 (B), the increase in activated Caspase 3 at 48 hours that leads to cell death with I-103 treatment (C), and increase in subG1 cells observed with I-103 treatment (D).

SU-DHL-1 cells [2] = experiment: Effect on cell proliferation, cell cycle, apoptosis, cell death and STAT-3 expression in SU-DHL-1 cells (flow cytometry); format: cell-based
Method: I-103 was evaluated to determine its effect on viability, cell cycle, cell proliferation, apoptosis, and STAT-3 expression. SU-DHL-1 cells were cultured until sufficient cell numbers were obtained. Timepoints were staggered in order to harvest all cells simultaneously. On day 1, cells were seeded at 12,000 cells per well in five identical 96 well-plates. Test compounds at 5 μM, 0.5 μM, and 0.05 μM and controls were added to the wells designated for the 96-hour timepoint. Test compound addition was repeated on days 2-4 for the 72, 48, and 24-hour timepoints.
At day 5, the cells were evaluated for each of the five readouts listed above. Cell viability was determined by preferentially staining dead cells with 3 μM DAPI. Cell proliferation was measured by Ki-67 expression of fixed and permeabilized cells using the Foxp3/Transcription Factor Staining Buffer Set. Cell cycle analysis was performed with the PI/RNase Staining Solution on ethanol-fixed cells. Caspase-3 and PARP internal staining was used to determine the level of apoptosis. STAT-3 expression levels were determined with as described below, fixing cells with 1.6% PFA and permeabilizing with methanol in order to stain cells with a STAT-3 antibody. All plates were analyzed by flow cytometry.
Cell culture: SU-DHL-1 cells were cultured according to DSMZ recommendations for culture medium, passage frequency, and seeding density. Briefly, cells were seeded at 0.3×10^6 cells/mL and passaged every 2-3 days, not to exceed a cell density of 1.5×10^6/mL. SU-DHL-1 cells were cultured in RPMI 1640 medium supplemented with 10% FBS.
Co-culture cells and test compounds: SU-DHL-1 cells were harvested and the concentration was adjusted to 6.67×10^4 cells/mL. Cells were added to the wells according to the plate map below (FIG. 1). Each well received 180 μL of cells for a total of 12,000 cells/well, as determined by an optimal seeding density pilot performed prior to the initiation of this experiment.
A 20 mM DMSO stock solution of I-103 was prepared. I-103 was first prepared at 1000× in DMSO and then further diluted to 10× in RPMI supplemented with 10% HI-FBS. I-103 was added at a volume of 20 μL to the appropriate wells according to the plate maps. Controls were prepared as described in the table below (Table 85). Drug addition on days 2-4 followed the same protocol.
Evaluation of cells after culture with test compounds: At the conclusion of the 96-hour incubation, each plate was evaluated for one specific endpoint readout.
The viability plate was removed from the incubator, centrifuged and washed with 200 μL of DPBS. Cells were centrifuged and the supernatant was decanted. The cell pellet was resuspended in 120 μL of 3 μM DAPI solution. Cells were incubated for 10 minutes at room temperature, protected from light. After the incubation, cells were centrifuged again, decanted and resuspended in 120 μL of BD stain buffer and analyzed by flow cytometry to determine cell viability.
The PI/RNase plate was removed from the incubator, centrifuged and washed with 200 μL of DPBS. Cells were centrifuged and the supernatant was decanted. The cell pellet was resuspended in 60 μL of DPBS. Absolute ethanol was added at 140 μL per well and mixed well to fix cells. Cells were incubated for 10 minutes at 4° C. After the incubation, cells were centrifuged and washed twice with DPBS. […] Cells were analyzed by flow cytometry without washing. […]

With `Cn1c(=O)n(C2CCC(=O)NC2=O)c2ccc(CCCCCCC(=O)N3CC[C@H]4CC[C@@H](C(=O)N[C@@H](CCC(N)=O)C(=O)NC(c5ccccc5)c5ccccc5)N4C(=O)[C@@H](NC(=O)c4cc5cc(C(=O)P(=O)(O)O)ccc5[nH]4)C3)cc21` (stereo partly shown) the IC50 (SU-DHL-1 cells [1]) was 0.38 µM, the STAT3 level (STAT3) was “decrease in STAT3” and the “subG1 cells (PI/RNAse analysis, FACS)” value (SU-DHL-1 cells [2]; SU-DHL-1, 48, 72, and 96 hours, FIG. 7D) was “increase in subG1 cells”. The “STAT-3 expression (flow cytometry)” value (SU-DHL-1 cells [2]; SU-DHL-1, 24 hours, FIG. 7A) was “decrease of STAT3 at 24 hours”, the apoptosis (SU-DHL-1 cells [2]; SU-DHL-1, 48 hours) was “induces apoptosis at 48 hours that leads to cell death” and the “proliferation (Ki-67)” value (SU-DHL-1 cells [2]; SU-DHL-1, FIG. 7B) was “time-dependent inhibition of proliferation”. For the same molecule, the “activated Caspase 3” value (SU-DHL-1 cells [2]; SU-DHL-1, FIG. 7C) was “increase in activated Caspase 3”.
